The source of these data is patent US20250092033A1, “HETEROAROMATIC NITROGEN-OXIDE COMPOUND, PREPARATION METHOD THEREFOR, AND USE THEREOF” (BEIJING AVISTONE BIOTECHNOLOGY CO., LTD., priority 2021, published 2025).

The chains behind the UniProt entries cited, without tags or fusion partners. Where a name states a change or a piece, a line headed by the entry shows the natural chain unless it says otherwise. Residues count along the entry.
UniProt P08581, 25-1390 limits assumed: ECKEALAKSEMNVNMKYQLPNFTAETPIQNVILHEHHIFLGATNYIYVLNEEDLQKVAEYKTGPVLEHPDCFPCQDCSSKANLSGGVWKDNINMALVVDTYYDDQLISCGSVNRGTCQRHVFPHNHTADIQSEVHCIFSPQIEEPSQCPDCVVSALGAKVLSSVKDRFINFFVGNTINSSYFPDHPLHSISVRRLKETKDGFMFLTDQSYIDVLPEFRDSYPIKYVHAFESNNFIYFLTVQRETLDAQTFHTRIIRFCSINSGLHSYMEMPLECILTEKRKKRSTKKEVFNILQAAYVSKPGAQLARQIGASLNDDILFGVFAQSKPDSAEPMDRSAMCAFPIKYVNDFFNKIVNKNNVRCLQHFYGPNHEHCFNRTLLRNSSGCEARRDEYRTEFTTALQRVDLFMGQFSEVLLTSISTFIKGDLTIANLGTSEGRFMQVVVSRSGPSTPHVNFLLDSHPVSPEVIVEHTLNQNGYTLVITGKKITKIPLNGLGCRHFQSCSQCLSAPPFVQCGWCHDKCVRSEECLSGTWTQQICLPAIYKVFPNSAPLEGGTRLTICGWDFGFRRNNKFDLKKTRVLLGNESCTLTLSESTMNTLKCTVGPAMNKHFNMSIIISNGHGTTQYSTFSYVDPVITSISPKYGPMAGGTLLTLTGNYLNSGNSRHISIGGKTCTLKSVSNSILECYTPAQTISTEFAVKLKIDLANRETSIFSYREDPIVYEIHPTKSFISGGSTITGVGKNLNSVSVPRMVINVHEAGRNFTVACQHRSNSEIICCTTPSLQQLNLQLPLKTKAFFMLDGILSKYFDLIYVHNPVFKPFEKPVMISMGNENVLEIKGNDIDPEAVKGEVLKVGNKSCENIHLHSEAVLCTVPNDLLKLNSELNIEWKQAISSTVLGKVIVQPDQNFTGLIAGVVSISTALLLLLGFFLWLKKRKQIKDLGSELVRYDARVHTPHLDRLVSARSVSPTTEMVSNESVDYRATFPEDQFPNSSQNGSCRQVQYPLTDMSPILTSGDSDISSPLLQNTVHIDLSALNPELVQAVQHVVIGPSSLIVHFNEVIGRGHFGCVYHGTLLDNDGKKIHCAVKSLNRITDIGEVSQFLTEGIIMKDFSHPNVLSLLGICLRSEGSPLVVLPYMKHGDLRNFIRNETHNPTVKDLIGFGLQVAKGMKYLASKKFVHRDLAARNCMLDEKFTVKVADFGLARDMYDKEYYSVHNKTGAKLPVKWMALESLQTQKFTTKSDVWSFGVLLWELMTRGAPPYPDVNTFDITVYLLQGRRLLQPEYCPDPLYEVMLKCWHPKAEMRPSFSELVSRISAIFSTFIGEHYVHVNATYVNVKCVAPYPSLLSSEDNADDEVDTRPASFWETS
UniProt P08581, 25-1390 D1228N limits assumed: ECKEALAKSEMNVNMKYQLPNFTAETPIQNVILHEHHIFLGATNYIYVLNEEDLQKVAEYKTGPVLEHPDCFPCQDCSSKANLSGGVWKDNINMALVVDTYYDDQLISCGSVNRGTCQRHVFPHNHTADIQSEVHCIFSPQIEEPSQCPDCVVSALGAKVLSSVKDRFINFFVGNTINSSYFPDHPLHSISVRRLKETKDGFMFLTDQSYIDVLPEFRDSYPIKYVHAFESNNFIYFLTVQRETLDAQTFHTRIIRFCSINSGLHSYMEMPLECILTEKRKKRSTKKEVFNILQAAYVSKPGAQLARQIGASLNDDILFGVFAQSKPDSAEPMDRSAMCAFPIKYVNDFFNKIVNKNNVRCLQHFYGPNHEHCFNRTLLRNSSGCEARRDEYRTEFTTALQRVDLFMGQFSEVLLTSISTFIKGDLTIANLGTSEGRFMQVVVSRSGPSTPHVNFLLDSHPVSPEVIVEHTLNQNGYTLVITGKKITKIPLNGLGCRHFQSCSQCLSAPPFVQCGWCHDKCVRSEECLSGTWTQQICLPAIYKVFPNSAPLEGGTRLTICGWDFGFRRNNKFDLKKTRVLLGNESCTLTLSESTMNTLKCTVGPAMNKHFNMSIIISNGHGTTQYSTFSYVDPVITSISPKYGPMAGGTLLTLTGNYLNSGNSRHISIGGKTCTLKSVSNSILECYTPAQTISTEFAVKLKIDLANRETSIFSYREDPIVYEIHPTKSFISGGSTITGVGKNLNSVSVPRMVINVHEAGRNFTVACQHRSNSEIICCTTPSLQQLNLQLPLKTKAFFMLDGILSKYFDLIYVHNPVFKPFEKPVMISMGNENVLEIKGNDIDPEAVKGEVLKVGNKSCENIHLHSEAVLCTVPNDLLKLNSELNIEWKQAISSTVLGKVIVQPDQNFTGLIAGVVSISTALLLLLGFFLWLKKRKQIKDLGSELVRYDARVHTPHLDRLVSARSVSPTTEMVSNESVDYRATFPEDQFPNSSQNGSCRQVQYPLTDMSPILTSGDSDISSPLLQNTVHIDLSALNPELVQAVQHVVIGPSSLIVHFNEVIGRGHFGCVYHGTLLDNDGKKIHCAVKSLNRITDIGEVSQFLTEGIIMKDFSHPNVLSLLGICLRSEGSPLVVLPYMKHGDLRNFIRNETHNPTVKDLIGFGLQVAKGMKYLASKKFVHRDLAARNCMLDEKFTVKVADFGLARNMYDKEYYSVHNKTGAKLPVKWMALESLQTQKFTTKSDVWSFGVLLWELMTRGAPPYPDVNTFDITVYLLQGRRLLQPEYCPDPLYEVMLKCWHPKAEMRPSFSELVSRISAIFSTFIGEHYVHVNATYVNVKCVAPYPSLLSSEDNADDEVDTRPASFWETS
UniProt P08581, 25-1390 F1200I limits assumed: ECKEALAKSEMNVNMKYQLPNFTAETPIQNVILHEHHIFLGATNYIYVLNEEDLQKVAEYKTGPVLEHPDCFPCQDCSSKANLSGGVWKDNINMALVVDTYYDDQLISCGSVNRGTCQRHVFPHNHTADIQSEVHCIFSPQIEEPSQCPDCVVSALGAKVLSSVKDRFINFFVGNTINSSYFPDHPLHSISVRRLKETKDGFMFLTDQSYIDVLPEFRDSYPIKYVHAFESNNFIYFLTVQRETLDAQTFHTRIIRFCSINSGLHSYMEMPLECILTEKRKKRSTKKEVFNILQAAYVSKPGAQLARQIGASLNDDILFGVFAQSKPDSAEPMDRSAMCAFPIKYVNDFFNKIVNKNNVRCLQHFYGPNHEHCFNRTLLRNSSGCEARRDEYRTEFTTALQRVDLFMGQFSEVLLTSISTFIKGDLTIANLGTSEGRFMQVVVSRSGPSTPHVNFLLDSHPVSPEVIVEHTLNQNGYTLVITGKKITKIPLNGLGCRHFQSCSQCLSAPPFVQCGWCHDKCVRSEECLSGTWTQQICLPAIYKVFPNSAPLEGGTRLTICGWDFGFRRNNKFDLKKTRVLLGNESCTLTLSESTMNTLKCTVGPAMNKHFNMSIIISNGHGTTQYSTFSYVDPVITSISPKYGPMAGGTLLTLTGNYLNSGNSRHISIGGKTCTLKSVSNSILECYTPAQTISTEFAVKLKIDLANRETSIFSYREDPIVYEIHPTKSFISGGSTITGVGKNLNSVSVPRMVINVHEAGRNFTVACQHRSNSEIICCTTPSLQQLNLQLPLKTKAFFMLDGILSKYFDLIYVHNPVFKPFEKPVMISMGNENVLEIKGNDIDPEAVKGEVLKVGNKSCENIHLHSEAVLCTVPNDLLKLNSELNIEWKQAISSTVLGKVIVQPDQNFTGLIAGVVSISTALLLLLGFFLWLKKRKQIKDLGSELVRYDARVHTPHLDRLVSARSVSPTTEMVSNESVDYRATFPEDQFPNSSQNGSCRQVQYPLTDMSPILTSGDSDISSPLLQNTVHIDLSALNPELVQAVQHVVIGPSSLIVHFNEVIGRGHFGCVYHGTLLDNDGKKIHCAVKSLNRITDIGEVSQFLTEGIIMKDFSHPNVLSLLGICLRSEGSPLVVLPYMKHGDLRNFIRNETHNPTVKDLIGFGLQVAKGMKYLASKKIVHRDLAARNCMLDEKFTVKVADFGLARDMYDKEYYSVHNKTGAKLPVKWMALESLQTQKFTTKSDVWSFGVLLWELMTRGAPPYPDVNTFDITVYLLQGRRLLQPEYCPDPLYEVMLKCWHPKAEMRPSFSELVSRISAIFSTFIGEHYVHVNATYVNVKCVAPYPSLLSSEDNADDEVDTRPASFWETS

Assay type in all cases: biochemical
In one experiment the target is MET D1228N (Homo sapiens, UniProt P08581, D1228N). Put plainly: Kinase inhibition experiment (HTRF KinEASE-TK kit), mutant MET D1228N. As to conditions: read-out: IC50 (nM) of inhibition of mutant D1228N MET kinase, 10 concentrations, 3-fold dilution. As to the method:
(§1) The activity of the compounds was determined by detecting the residual amount of ATP after reacting with wild-type or mutant MET protein kinase by using an HTRF KinEASE-TK kit. […]
(§2) The compounds were determined on the selected kinase, the solvent control was set and a total of 10 concentrations were detected, diluted 3-fold, 2 replicates per concentration.
(§3) 1 volume of 5× kinase reaction buffer and 4 volumes of water; 5 mM MgCl2; 1 mM DTT; 1 mM MnCl2; or 2500 nm SEB.
(§4) 1) 10 nl or 4 μlof the diluted compound was transferred to each well of the reaction plate (784075 or 264706, Greiner or Thermo) with a pipette, the reaction plate was sealed with a sealing plate, and centrifuged at 1000 for 1 minute. […]
(§5) 5) the fluorescence signals at 615 nm (cryptate) and 665 nm (XL665) were read with Envision 2104 or TECAN.
(§6) The data was analyzed using GraphPad Prism 6.0 or 7 software, and the dose-response curve was fitted with nonlinear S-curve regression, and the IC50 value was calculated therefrom. […]

Another experiment has as its target MET F1200I (Homo sapiens, UniProt P08581, F1200I). Put plainly: Kinase inhibition experiment (HTRF KinEASE-TK kit), mutant MET F1200I. The conditions noted are these: read-out: IC50 (nM) of inhibition of mutant F1200I MET kinase, 10 concentrations, 3-fold dilution. The procedure: as §1, §2, §3, §4, §5, §6
In experiment [1] the target is wild type (WT) MET kinase (Homo sapiens, UniProt P08581). Put plainly: Kinase inhibition experiment (HTRF KinEASE-TK kit), wild-type MET. The conditions noted are these: read-out: IC50 (nM) of inhibition of wild type (WT) MET kinase, 10 concentrations, 3-fold dilution. The procedure:
as §1, §2, §3, §4, §5, §6

The match of structure and compound is tentative.

Regarding `C[C@H](CO)Nc1n[nH]c2nccc(Oc3ccc(NC(=O)c4cc(C#N)cc(-c5ccc(F)cc5)[n+]4[O-])cc3F)c12`, the results for the IC50 (on MET D1228N; on MET F1200I; in experiment [1]) were 33.5 nM, 51.1 nM and 22.2 nM, respectively.
